No constants are given. Whether binding was seen depends on the method and setting. Binding seen in cells or lysates may run through a third protein. Here binding means that the protein was enriched with, or labelled near, the bait; the list need not be complete.
target: TbTau95-PTP (T. brucei); assay: affinity purification with mass spectrometry; tandem affinity purification from the T. brucei TbTau95-PTP cell line (IgG affinity chromatography, TEV protease elution, anti-Prot C affinity chromatography), eluate on SDS-PAGE, in-gel tryptic digestion, LC-MS/MS; two purifications; mock purification from wild-type cells as control

The chains behind the UniProt entries cited, without tags or fusion partners. Where a name states a change or a piece, a line headed by the entry shows the natural chain unless it says otherwise.
UniProt Q4QC86: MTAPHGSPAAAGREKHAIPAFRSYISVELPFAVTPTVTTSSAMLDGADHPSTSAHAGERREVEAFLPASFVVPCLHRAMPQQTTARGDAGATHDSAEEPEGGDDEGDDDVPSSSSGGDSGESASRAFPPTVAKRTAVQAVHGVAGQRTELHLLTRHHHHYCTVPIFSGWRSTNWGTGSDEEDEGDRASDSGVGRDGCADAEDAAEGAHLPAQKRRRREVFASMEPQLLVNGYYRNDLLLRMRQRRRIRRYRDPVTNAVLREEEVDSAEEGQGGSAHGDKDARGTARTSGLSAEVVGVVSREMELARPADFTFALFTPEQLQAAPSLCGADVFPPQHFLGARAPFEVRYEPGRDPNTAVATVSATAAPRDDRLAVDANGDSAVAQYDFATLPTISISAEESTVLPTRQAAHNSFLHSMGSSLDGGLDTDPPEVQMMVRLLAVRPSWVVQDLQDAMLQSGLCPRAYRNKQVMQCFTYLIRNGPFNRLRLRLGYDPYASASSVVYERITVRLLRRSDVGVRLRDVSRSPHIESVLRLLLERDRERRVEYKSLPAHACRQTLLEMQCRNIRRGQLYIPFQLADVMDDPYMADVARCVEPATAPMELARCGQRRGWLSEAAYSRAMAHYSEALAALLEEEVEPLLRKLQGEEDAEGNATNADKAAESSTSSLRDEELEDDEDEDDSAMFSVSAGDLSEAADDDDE
UniProt Q4QJI9: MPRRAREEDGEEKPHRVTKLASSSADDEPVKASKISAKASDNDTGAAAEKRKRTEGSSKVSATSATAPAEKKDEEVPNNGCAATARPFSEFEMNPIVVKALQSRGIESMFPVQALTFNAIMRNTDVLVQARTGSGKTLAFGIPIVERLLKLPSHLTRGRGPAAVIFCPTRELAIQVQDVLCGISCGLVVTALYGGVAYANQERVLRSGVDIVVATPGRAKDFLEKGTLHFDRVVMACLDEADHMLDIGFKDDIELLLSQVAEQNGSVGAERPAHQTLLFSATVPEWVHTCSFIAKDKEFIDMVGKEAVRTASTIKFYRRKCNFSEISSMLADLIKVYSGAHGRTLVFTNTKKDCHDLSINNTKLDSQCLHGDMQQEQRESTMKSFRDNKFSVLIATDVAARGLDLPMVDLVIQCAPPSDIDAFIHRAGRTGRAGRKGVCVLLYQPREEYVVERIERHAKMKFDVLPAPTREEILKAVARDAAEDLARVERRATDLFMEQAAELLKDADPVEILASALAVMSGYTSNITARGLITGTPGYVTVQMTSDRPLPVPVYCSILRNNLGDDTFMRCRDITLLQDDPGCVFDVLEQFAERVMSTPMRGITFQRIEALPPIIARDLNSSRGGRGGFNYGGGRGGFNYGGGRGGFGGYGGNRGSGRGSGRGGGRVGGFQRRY
UniProt E9ADW9: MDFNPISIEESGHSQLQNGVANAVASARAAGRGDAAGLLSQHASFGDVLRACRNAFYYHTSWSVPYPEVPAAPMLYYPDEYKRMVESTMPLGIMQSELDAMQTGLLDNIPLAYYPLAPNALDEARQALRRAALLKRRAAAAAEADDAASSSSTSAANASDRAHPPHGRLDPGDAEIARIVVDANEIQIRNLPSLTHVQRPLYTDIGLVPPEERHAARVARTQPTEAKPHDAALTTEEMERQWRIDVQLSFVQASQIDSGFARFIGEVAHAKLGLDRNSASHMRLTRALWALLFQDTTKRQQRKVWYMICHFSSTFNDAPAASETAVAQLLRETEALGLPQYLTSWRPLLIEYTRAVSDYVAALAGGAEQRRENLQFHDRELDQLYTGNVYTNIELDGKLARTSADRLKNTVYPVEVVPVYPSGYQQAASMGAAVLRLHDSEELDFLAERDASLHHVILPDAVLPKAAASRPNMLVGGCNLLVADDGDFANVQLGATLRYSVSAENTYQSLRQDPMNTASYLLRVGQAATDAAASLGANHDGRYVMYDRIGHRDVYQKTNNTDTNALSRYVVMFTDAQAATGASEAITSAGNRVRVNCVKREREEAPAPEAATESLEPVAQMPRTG
UniProt Q4Q732: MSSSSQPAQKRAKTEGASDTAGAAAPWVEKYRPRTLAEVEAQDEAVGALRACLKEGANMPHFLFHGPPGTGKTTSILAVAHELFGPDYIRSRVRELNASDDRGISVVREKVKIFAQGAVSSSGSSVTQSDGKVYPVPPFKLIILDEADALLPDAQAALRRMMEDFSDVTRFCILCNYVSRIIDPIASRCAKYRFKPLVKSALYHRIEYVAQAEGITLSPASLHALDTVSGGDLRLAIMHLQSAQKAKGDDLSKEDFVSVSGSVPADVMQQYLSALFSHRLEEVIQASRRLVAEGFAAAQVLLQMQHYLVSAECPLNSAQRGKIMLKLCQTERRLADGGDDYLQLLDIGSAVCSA
UniProt Q4QAN4: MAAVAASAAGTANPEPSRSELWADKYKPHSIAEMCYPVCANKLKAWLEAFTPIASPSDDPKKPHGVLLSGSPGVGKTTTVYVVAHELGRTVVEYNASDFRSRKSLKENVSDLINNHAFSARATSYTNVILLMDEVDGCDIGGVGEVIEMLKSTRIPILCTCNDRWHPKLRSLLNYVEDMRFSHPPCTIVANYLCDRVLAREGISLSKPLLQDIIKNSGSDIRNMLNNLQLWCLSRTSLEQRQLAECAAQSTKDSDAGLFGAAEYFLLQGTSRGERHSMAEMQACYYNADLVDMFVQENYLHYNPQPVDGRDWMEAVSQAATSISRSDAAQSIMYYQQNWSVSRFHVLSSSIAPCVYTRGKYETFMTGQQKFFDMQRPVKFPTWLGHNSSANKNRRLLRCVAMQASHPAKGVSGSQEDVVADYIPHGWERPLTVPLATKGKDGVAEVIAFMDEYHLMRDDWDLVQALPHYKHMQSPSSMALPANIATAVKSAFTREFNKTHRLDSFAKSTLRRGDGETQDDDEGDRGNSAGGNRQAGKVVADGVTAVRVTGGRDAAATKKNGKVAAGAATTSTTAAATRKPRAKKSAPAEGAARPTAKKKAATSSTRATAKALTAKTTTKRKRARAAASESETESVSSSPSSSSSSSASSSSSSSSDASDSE
UniProt E9AD76: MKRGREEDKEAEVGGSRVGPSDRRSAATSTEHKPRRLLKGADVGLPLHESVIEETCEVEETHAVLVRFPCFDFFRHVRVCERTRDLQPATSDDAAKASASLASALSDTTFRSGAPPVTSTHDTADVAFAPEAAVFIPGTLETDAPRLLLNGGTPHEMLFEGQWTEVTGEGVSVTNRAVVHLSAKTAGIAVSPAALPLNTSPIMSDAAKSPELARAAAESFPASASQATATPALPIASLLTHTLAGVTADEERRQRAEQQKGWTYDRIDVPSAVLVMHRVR
UniProt Q4Q2T4: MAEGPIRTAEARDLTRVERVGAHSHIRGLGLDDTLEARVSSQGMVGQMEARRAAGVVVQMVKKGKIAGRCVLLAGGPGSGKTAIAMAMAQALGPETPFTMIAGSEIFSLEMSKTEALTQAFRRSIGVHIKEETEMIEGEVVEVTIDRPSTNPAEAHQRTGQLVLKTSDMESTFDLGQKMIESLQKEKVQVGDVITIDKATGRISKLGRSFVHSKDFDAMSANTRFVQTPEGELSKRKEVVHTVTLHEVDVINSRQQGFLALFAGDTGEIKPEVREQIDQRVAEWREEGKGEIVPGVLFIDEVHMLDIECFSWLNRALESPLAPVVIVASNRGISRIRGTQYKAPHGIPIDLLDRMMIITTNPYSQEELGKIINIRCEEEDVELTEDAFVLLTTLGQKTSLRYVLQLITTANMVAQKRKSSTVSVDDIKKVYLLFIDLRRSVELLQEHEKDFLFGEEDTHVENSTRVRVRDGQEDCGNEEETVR
UniProt E9ACM4: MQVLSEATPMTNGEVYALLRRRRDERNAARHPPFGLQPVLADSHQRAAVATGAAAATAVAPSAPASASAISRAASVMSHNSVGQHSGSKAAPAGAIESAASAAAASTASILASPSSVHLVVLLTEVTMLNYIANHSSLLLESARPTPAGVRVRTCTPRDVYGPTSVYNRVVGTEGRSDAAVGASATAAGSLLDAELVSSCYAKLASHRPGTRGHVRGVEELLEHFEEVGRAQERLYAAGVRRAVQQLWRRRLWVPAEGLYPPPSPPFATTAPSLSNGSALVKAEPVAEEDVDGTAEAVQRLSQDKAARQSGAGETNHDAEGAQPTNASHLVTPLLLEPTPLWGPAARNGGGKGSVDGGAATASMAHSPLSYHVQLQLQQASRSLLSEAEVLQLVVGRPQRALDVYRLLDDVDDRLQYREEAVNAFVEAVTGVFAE
UniProt Q4QHJ7: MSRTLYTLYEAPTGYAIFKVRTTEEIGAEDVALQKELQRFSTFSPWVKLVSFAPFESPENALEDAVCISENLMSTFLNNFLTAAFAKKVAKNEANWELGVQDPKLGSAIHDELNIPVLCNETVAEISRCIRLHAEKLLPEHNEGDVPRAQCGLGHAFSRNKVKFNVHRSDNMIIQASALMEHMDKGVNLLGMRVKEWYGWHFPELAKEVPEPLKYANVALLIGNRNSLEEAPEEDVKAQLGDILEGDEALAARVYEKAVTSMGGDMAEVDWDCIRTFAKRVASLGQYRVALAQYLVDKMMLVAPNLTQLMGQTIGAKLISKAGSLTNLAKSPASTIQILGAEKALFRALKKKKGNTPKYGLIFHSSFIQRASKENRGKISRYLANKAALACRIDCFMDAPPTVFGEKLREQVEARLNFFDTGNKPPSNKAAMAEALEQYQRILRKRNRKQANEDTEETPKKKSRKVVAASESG
UniProt Q4Q0H2: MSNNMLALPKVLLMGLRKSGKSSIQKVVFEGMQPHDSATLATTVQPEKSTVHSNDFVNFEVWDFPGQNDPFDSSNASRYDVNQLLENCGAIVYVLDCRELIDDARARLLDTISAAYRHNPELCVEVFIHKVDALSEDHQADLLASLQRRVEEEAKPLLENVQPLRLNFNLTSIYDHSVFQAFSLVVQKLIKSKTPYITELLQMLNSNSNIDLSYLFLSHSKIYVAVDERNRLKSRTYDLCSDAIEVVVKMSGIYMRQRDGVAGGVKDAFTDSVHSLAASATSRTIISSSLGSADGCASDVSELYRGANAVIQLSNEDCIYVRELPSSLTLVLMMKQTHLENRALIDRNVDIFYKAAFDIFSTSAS
UniProt Q4Q2W6: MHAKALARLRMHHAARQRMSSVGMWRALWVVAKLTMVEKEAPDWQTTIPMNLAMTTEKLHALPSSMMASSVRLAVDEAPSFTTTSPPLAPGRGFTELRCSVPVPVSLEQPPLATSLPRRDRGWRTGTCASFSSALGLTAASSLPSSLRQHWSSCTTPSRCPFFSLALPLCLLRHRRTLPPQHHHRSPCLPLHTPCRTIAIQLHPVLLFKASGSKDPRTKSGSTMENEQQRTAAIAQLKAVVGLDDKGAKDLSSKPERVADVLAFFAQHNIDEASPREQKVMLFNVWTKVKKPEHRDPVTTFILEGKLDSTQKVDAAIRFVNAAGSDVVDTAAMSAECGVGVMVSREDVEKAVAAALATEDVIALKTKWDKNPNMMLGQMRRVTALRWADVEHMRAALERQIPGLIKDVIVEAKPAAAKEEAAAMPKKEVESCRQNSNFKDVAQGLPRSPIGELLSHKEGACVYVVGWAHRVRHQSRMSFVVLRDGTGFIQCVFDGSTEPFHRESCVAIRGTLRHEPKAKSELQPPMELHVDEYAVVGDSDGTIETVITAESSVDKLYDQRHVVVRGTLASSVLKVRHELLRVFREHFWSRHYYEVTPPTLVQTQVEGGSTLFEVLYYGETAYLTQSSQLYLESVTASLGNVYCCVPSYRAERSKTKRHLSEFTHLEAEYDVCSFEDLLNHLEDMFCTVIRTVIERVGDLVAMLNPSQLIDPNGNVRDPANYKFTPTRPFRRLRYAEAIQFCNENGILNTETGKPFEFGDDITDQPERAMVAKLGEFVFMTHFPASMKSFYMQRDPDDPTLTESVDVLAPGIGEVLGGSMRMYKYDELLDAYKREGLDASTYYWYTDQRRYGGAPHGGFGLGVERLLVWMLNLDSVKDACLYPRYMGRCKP

binding | Molecule
binds | TFIIIC subunit Tau131 (T. brucei) (protein, UniProt Q4GYJ1 1-1182) MASNQQDANIGVVDRQTEPKRRRRSSGTAFSSMELHRRFEEHVAKAQQLFLQGNKDGAEQEATLALRIHPTDHLFALLAVIAESKGQFNRASDLRLLQAFMANDAVLWEELLHEFMQERLYYKSAVCLHRLAVLETRDKVRYRTLQLQLADLYIGLGEFKRAAHILISLWNGSRCRDFEVFAMLSSLFFQLGRWNSLHRLIESSLKSTFRPVVCTMEGGEKPPDAPSSRLGREPSTVEGKEELTAPMARRRVPRRVRFFGVDDNDECDNDTDSVVKRAEGIQQAGSLSQPTPTVDNTCLAEALCEGDDFDFTSEGCDSQSVHGIRSGACATPSAVIHSMYGDSVKFRTATDKKNFLTLVNVHAELLNEEGNFPDTVRLVEFAAGCLNVSLLELHPDLLVRLGVAYAFLGGMEQQCREVFHHLVDTCPMAEYGDVLYDAANALQQVGLHTEARMLFQTVRRYHEFRMKGSNGNADDGNNLDDEEKTEVKTVFVAALFAESQCEASLGNIEVACDNLCRVLEVDPHHLQSRLALGRLCMYDMNDTERAIEVLTPRESEPPLERIQLAAELVRVFARSKKYVEAIALGVSVFELIMSSQYEGDADSVAPGSTRRSTAPLSMPTLSPASSAIIPPSAISDIVNGPRLSSSADLSSTRLSHALATSIRASSVAFRINLARRGGTPLTASVYGASAAASTVAGWSHGDEETGQKDSSTIFRFNRTLKPVGCLRPVNKGTCNRKCPRAADEGDVDTEDDCRRARKRRREEEVAQRDVRSFWKEHADSDTDNCGEPSNQENETEHQMEQGGAHLSTDKKSENEDEGPCIDDGSDDGDATRFELPSLEEVSKQFGDSYMQELFMQASSNEAMTSAGHMPASNVGGTIALDNVLGDDTEAGLGQAAAPLRVTMRDALKVLGCAGFIELAVTVVDCYGAIGKFTEAKEFAFVVLIGCQRTSIFRHLVTMERPLRWAVLRAALASGECEDAYRVGIRLLQEQCSEQEKDRILELLFGVLNRTEMGSSILLRLVAGGYQENPSVLVLLGNRYFLRRTYIRALNMYLAAMQRRPNDVLVCFLVGVCFLLVSHQKRIRARNACVVSAWHYLLRYQGALRDIGPQRQAEATYNCARALQYLGLHHLSTPLYEQVAYEYSVPEQCSLPLQRAARFNLYFTYRWRTGNSRLALDALQPRF

target: LmTau95-PTP (L. major) (UniProt Q4QC86); assay: affinity purification with mass spectrometry; tandem affinity purification from the L. major LmTau95-PTP cell line (IgG affinity chromatography, TEV protease elution, anti-Prot C affinity chromatography), eluate on SDS-PAGE, in-gel tryptic digestion, LC-MS/MS; two purifications; mock purification from wild-type cells as control

binding | Molecule
binds | Nucleolar RNA helicase II (L. major) (from UniProt Q4QJI9)
binds | PAF1 complex novel subunit (L. major) (from UniProt E9ADW9)
binds | Replication factor C, subunit 2 (L. major) (from UniProt Q4Q732)
binds | Replication factor C, subunit 1 (L. major) (from UniProt Q4QAN4)
binds | TFIIIC subunit Tau131 (L. major) (from UniProt Q4QGN6)
binds | TFIIIC subunit Tau55 (L. major) (from UniProt E9AD76)
binds | RuvB-like DNA helicase (LmjF.34.2610) (from UniProt Q4Q2T4)
binds | C17/RPC9 (RNAP III) (L. major) (from UniProt E9ACM4)
binds | Nop56, rRNA processing (L. major) (from UniProt Q4QHJ7)
binds | Ras-like small GTPases LmjF.36.5880 (from UniProt Q4Q0H2)
binds | Asparaginyl-tRNA synthetase (L. major) (from UniProt Q4Q2W6)
